Data on 25 compounds can be found in the M2OR odorant receptor database.

The structures appear in SMILES notation. This is a selection; strong and weak results do not stand in their true shares. Calls are pooled over several reports, among them a noisy single-well screen. Some of the results follow.

One test has as its target T1, OR1N1 (Homo sapiens) (UniProt Q8NGS0).
T1 sequence (whole entry): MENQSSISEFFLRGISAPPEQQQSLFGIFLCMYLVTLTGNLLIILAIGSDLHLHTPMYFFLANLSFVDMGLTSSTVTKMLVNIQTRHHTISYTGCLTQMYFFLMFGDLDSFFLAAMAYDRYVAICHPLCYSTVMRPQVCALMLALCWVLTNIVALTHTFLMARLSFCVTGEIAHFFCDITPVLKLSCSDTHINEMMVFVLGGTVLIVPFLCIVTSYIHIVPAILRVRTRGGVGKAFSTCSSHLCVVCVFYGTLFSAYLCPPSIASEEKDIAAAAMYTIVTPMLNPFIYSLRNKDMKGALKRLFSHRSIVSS
As to conditions: stereoisomer not certain. Put shortly:
(§1)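 Assay methods differ from source to source, frequently being transient luciferase assays in mammalian cell lines. For each receptor–molecule pair, the label responsive (active) applies when the original authors judged the measured signal statistically different from baseline, and non-responsive (inactive) applies otherwise.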
On to `COc1cc(C=O)ccc1O`, for which the “odorant receptor agonist call” value is “inactive”.
Still for that read-out and setting: as for `CC1=CCC(C(C)(C)O)CC1` (stereo not given), the entry is “inactive”; as for `CC(C)CC(=O)O`, “inactive”.
On to `O=C1CCCCCCCCCCCCCCO1`, for which the “odorant receptor agonist call” value is “inactive”.
Same read-out and setting: as for `CC1CCC(C(C)C)C(O)C1` (stereo not given), the entry is “active”.
As to `COC(=O)c1ccccc1`, the “odorant receptor agonist call” value is “inactive”.
Still for that read-out and setting: the entry for `C=CCc1ccc(OC(C)=O)c(OC)c1` is “inactive”.
The same measure, in the same setting: the entry for `C=CCc1ccc(OC)c(OC)c1` is “inactive”.
On the same count and under the same terms, as for `CC=Cc1ccc(O)c(OC)c1`, the entry is “inactive”; as for `COc1ccccc1O`, “inactive”; as for `CC1=NC(C)SC1C` (stereo not given), “inactive”.
Consider `C=CC(C)(O)CCC=C(C)C` (stereo not given), for which the “odorant receptor agonist call” value is “inactive”.
Still for that read-out and setting: as for `CC(=O)c1ccccc1`, the entry is “inactive”; as for `CC(C)CCC(=O)O`, “inactive”.
Still for that read-out and setting: the entry for `CCCCCOC(C)=O` is “inactive”; for `CC(C)(C)c1ccc(CCC=O)cc1` it is “inactive”; for `CC(C)=CCCC(C)=CC=O` it is “inactive”.
Turning to `CCCC(=O)O`, the “odorant receptor agonist call” value is “inactive”.
In the case of `O=C1CCCCC1`, the “odorant receptor agonist call” value is “inactive”.
On to `CCCCCCCOC(C)=O`, for which the “odorant receptor agonist call” value was “inactive”.
As for `CC(=O)OC1CC2CCC1(C)C2(C)C` (stereo not given), the “odorant receptor agonist call” value was “inactive”.
On the same count and under the same terms, as for `CCCCCC(C)=O`, the entry is “inactive”; as for `CC1COCc2cc3c(cc21)C(C)(C)C(C)C3(C)C` (stereo not given), “active”; as for `CCCCCCCC=CC=O`, “inactive”.
Still for that read-out and setting: as for `CC12CCC(CC1)C(C)(C)O2`, the entry is “inactive”.

The target of a further test is T2, OR1N2 (Homo sapiens) (UniProt Q8NGR9).
T2 sequence (whole entry): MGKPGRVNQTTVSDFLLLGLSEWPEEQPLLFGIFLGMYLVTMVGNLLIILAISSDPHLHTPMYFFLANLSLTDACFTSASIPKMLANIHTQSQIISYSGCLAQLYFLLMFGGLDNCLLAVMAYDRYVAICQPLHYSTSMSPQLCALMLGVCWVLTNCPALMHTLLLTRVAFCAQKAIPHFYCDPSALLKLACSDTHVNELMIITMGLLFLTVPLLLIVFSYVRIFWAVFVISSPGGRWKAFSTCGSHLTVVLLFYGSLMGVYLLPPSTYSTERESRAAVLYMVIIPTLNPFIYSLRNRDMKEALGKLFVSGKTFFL
The following applies: stereoisomer not certain. In outline: as §1
Consider `COc1cc(C=O)ccc1O`, for which the “odorant receptor agonist call” value is “inactive”.
Still for that read-out and setting: the entry for `CC1=CCC(C(C)(C)O)CC1` (stereo not given) is “inactive”; for `CC(C)CC(=O)O` it is “inactive”; for `O=C1CCCCCCCCCCCCCCO1` it is “inactive”.
On the same count and under the same terms, as for `CC1CCC(C(C)C)C(O)C1` (stereo not given), the entry is “inactive”.
Regarding `COC(=O)c1ccccc1`, the “odorant receptor agonist call” value was “inactive”.
Same read-out and setting: as for `C=CCc1ccc(OC(C)=O)c(OC)c1`, the entry is “inactive”; as for `C=CCc1ccc(OC)c(OC)c1`, “inactive”.
In the case of `CC=Cc1ccc(O)c(OC)c1`, the “odorant receptor agonist call” value was “active”.
Still for that read-out and setting: as for `COc1ccccc1O`, the entry is “inactive”.
Take `CC1=NC(C)SC1C` (stereo not given): the “odorant receptor agonist call” value was “inactive”.
Still for that read-out and setting: as for `C=CC(C)(O)CCC=C(C)C` (stereo not given), the entry is “active”; as for `CC(=O)c1ccccc1`, “inactive”.
Same read-out and setting: as for `CC(C)CCC(=O)O`, the entry is “inactive”; as for `CCCCCOC(C)=O`, “inactive”.
On the same count and under the same terms, the entry for `CC(C)(C)c1ccc(CCC=O)cc1` is “inactive”; for `CC(C)=CCCC(C)=CC=O` it is “inactive”.
Regarding `CCCC(=O)O`, the “odorant receptor agonist call” value was “inactive”.
On the same count and under the same terms, as for `O=C1CCCCC1`, the entry is “inactive”; as for `CCCCCCCOC(C)=O`, “inactive”.
The same measure, in the same setting: the entry for `CC(=O)OC1CC2CCC1(C)C2(C)C` (stereo not given) is “inactive”; for `CCCCCC(C)=O` it is “inactive”.
Same read-out and setting: the entry for `CC1COCc2cc3c(cc21)C(C)(C)C(C)C3(C)C` (stereo not given) is “active”.
On to `CCCCCCCC=CC=O`, for which the “odorant receptor agonist call” value is “active”.
For the compound `CC12CCC(CC1)C(C)(C)O2`, the “odorant receptor agonist call” value is “inactive”.
